Data as given in PubChem BioAssay AID1508597 (Cure First, 2020)
Test: 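Knock-downs altering ovarian cancer cell survival with or without PARP inhibitor rucaparib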 (primary screen). System: human ovarian carcinoma lines grown from tumours: OCI-P5x (papillary serous) and OCI-C5x (clear cell). Knock-down reagent: siRNA pool against human genes, 1.25 pmol siRNA per well. Timing: 72 h or 96 h, depending on the cell culture. Challenge: rucaparib 20 µM (about IC30) or vehicle, present until read-out. Rucaparib or vehicle: Rucaparib. Cell line: OCI-P5x (serous). Read-out: 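ATP luminescence measured at 72 or 96 h according to the culture, then normalised and expressed as percent viability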. Reading the numbers: viability, normalised: higher = more viable cells remaining. Hit rule: 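Active when normalised viability falls below 80 percent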. Meaning of the calls: active = viability under 80%; inactive = viability 80% or more.
This is an unselected part of the about 2,100 reagents, under one of the conditions tested. 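Calls flag viability under 80% in either arm, not effects specific to rucaparib; the reference for percent is not stated.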 Unmarked entries are inactive. Some reagents were tested in more than one well and are listed for each. No sequences are given here. Not given: the 100% reference.

no.	gene	PubChem SID	technical replicate	viability, normalised (%)
1	GRK7	SID405527932	1	84.7
2	GRK7	SID405527932	2	78.7 (active)
3	GRK7	SID405527932	3	72.1 (active)
4	SLC25A26	SID405526484	1	50.1 (active)
5	SLC25A26	SID405526484	2	57.7 (active)
6	SLC25A26	SID405526484	3	65.6 (active)
7	GTF2H2	SID405528470	1	75 (active)
8	GTF2H2	SID405528470	2	82.3
9	GTF2H2	SID405528470	3	68.9 (active)
10	STK38	SID405527657	1	82.4
11	STK38	SID405527657	2	91
12	STK38	SID405527657	3	67.6 (active)
13	HMGN3	SID405526880	1	64.7 (active)
14	HMGN3	SID405526880	2	60.7 (active)
15	HMGN3	SID405526880	3	58.9 (active)
16	DMTF1	SID405528229	1	69.8 (active)
17	DMTF1	SID405528229	2	77.7 (active)
18	DMTF1	SID405528229	3	70 (active)
19	SHPK	SID405527775	1	83.4
20	SHPK	SID405527775	2	88.6
21	SHPK	SID405527775	3	53.8 (active)
22	CLDN6	SID405528139	1	86.2
23	CLDN6	SID405528139	2	106
24	CLDN6	SID405528139	3	90.5
25	PLCH1	SID405526715	1	48.6 (active)
26	PLCH1	SID405526715	2	55.1 (active)
27	PLCH1	SID405526715	3	54.5 (active)
28	MPP4	SID405528523	1	83.8
29	MPP4	SID405528523	2	75.4 (active)
30	MPP4	SID405528523	3	63.3 (active)
31	PDE4B	SID405526690	1	55.9 (active)
32	PDE4B	SID405526690	2	49.9 (active)
33	PDE4B	SID405526690	3	69.7 (active)
34	STRADA	SID405527820	1	83.7
35	STRADA	SID405527820	2	69.8 (active)
36	STRADA	SID405527820	3	70 (active)
37	BCL2L1	SID405528024	1	67.3 (active)
38	BCL2L1	SID405528024	1	73 (active)
39	BCL2L1	SID405528024	2	80.9
40	BCL2L1	SID405528024	2	79.7 (active)
41	BCL2L1	SID405528024	3	66.7 (active)
42	BCL2L1	SID405528024	3	89.5

4 entries already listed, ordered by “viability, normalised (%)”, highest first:
gene	PubChem SID	technical replicate	viability, normalised (%)
BCL2L1	SID405528024	2	80.9
BCL2L1	SID405528024	2	79.7 (active)
BCL2L1	SID405528024	1	73 (active)
BCL2L1	SID405528024	3	66.7 (active)
